Measured values taken from publication doi:10.1101/609503.

By UniProt entry, the sequences of proteins in these tests, tags left out. Where a name states a change or a piece, a line headed by the entry shows the natural chain unless it says otherwise.
UniProt P0AFS9: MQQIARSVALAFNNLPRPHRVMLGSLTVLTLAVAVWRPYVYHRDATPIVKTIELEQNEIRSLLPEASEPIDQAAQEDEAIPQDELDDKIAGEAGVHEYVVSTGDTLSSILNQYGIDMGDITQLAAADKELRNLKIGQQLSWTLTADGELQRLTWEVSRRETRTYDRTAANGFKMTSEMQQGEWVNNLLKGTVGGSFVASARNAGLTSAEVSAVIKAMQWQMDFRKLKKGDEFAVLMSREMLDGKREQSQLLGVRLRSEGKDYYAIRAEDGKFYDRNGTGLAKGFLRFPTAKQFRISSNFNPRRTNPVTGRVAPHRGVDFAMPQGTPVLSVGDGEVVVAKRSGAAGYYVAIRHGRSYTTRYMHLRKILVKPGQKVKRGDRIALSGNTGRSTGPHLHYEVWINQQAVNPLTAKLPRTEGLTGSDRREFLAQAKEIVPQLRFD

Target: MepM (E. coli) (UniProt P0AFS9)
Test: MST

B1: MepS (enzyme, UniProt P0AFV4 27-188)
chain: CSANNTAKNMHPETRAVGSETSSLQASQDEFENLVRNVDVKSRIMDQYADWKGVRYRLGGSTKKGIDCSGFVQRTFREQFGLELPRSTYEQQEMGKSVSRSNLRTGDLVLFRAGSTGRHVGIYIGNNQFVHASTSSGVIISSMNEPYWKKRYNEARRVLSRS
modifications: NT647 RED-NHS dye on amines where used as the labelled partner (fl-MepS)
Question: B1 was tested. Which binding did it give?
Answer: Its binding is “binds”.

These are yes or no findings as the source states them, for the method shown. Binding calls can cover weak binding; strength is not graded here.
